Reference: the supplement of paper PMC11150407
Out of some 3,000 compounds screened, about 45 (2%) showed an effect of 50% or more. The list shows a part of the results.

system: MOLM1 and UCSD/AML1 (averaged); test: cell viability relative to DMSO control (POC); higher = less growth inhibition; conditions: 1 µM; 72 h
Experimental: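 Primary viability screen in the 3q26 EVI1-high AML cell lines MOLM1 and UCSD/AML1, compounds at 1 uM for 72 h. ATP CellTiter-Glo read-out given as percent viable over DMSO control (POC), averaged over duplicates. This mapping covers the TimTec NDL-3000 natural derivative library, whose compounds are identified by TimTec catalogue codes (ST...).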

| SMILES | cell viability [%] |
| --- | --- |
| CC(=O)OC1CCC2(C)C(CCC3(C)C2C(=O)C=C2C4CC(C)(C(=O)Nc5ccccc5)CCC4(C)CCC23C)C1(C)C (centres undefined) | 99.2 |
| CN(C)c1cccc2c(S(=O)(=O)NC(CCCN=C(N)N)C(=O)O)cccc12 (centres undefined) | 103 |
| COC(=O)C1=C(C(=O)OC)N(c2ccc(F)cc2)C(N)=C(C#N)C1c1ccc(O)c(OC)c1 (centres undefined) | 107 |
| O=C(O)[C@@H](O)c1ccccc1 | 96.9 |
| COc1c2c(c(Cl)c(-c3cc(CO)on3)c1OC)OCO2 | 97.2 |
| COc1ccc(C(=O)n2nc(-c3ccccc3)c(Br)c2N)cc1OC | 98 |
| Cc1cc2nc3[nH]c(=O)[nH]c(=O)c3nc2cc1C | 94.8 |
| O=C(O)CNC(=O)c1ccccc1F | 104 |
| O=C1CC(c2ccccc2Cl)CC2=C1C(c1ccc(O)cc1)Nc1ccccc1N2 (centres undefined) | 112 |
| COc1ccccc1-c1c(C(F)(F)F)oc2c(CN3CC(C)OC(C)C3)c(O)ccc2c1=O (centres undefined) | 93.5 |
| COC(=O)c1ccc2[nH]c(C)c(CN3CCc4ccccc4C3)c(=O)c2c1 | 103 |
| COc1cccc(NC(=O)Cn2c(=O)cc(C(=O)N3CCc4ccccc4C3)c3ccccc32)c1 | 104 |
| COc1ccc(C(=O)CCNc2ccc3c(c2)n(C)c(=O)n3C)cc1OC | 105 |
| COc1ccc(C2C(C(=O)OCCOc3ccccc3)=C(C)NC3=C2C(=O)CC(C)(C)C3)cc1Br (centres undefined) | 99 |
| COc1ccc(C(=O)NC2CCCCCC2)cc1OC | 105 |
| CC(=O)OC1CCC2(C)C(CCC3(C)C2C(=O)C=C2C4CC(C)(C(=O)Nc5ccc([N+](=O)[O-])cc5)CCC4(C)CCC23C)C1(C)C (centres undefined) | 79.3 |
| COc1ccc2[nH]c(C)c(CCNC(=O)c3ccc(OC)c(OC)c3)c2c1 | 93.6 |
| O=C(Cn1cnc2ccccc2c1=O)c1ccc2c(c1)OCCO2 | 106 |
| O=C(NCCCCCCNC(=O)/C(=C\c1ccccc1)NC(=O)c1ccccc1)/C(=C/c1ccccc1)NC(=O)c1ccccc1 | 108 |
| COc1cccc(CNC(=O)CSc2nc3ccccc3c(=O)[nH]2)c1 | 103 |
| CC(C)(C)OC(=O)NC(CCCCNC(=O)OCc1ccccc1)C(=O)O (centres undefined) | 96.3 |
| CCC(=O)NC(N1CCCCC1c1cccnc1)(C(F)(F)F)C(F)(F)F (centres undefined) | 98.7 |

An excerpt from above in order of length of the SMILES, ascending.

| SMILES | cell viability [%] |
| --- | --- |
| COc1cccc(CNC(=O)CSc2nc3ccccc3c(=O)[nH]2)c1 | 103 |
| O=C1CC(c2ccccc2Cl)CC2=C1C(c1ccc(O)cc1)Nc1ccccc1N2 (centres undefined) | 112 |
| COC(=O)C1=C(C(=O)OC)N(c2ccc(F)cc2)C(N)=C(C#N)C1c1ccc(O)c(OC)c1 (centres undefined) | 107 |

(listing goes on)

| SMILES | cell viability [%] |
| --- | --- |
| CCOC(=O)c1ccccc1NC(=O)c1cc(OC)c(OC)c(OC)c1 | 68.4 |
| Cc1cc(=O)[nH]c2ccc(S(=O)(=O)N(C)CC34CC5CC(CC(C5)C3)C4)cc12 | 102 |
| CN1CCc2c(c3ccccc3n2Cc2ccccc2)C1 | 92.9 |
| CCCNC(=O)CN1CCc2c([nH]c3ccccc23)C1c1ccc(OC)cc1 (centres undefined) | 84.8 |
| CCCc1cc(=O)[nH]c(SCc2ccc(C(=O)Nc3ccc(C)c(Cl)c3)cc2)n1 | 94.4 |
| COc1ccc2[nH]c(=O)c(CNCc3ccccc3)cc2c1 | 105 |
| COc1ccc(C2C3CCCCC3(O)CCN2C(=O)C2c3ccccc3Oc3ccccc32)c(OC)c1 (centres undefined) | 88.4 |
| Cc1ccc(OCCOCn2cc(Br)c(=O)[nH]c2=O)cc1 | 99.7 |
| N=c1cc(C(=O)Nc2ccc(-c3ccccc3)cc2)c2cc(Cl)ccc2o1 | 106 |
| CC(=O)OC1CCC2(C)C(CCC3(C)C2CCC2C4C5OCC4(CCC5(C)C)CCC23C)C1(C)C (centres undefined) | 95.8 |
| Cn1c(=O)c2c(nc3n(Cc4ccccc4)c(C45CC6CC(CC(C6)C4)C5)cn23)n(C)c1=O | 101 |
| Cn1c(=O)c2cc(S(=O)(=O)N3CCc4ccccc4C3)ccc2n(C)c1=O | 102 |
| COc1ccc(C2NC(C(=O)O)Cc3c2[nH]c2ccccc32)cc1COc1ccc(F)c(Cl)c1 (centres undefined) | 86.8 |
| O=C1OC([C@@H](O)[C@@H](O)CO)[C@H](O)[C@@H]1O (some centres undefined) | 93 |
| C[C@@H]1O[C@H](O)[C@@H](O)[C@H](O)[C@@H]1O | 98.1 |
| CCOC(=O)CCC(=O)Nc1ccccc1C(N)=O | 101 |
| CCCCCCOC(=O)c1ccccc1NC(=O)c1c(O)c2ccccc2[nH]c1=O | 97.5 |
| O=C(O)C1CCCN1c1nc(-c2ccc(Cl)c(Cl)c2)cc(C(F)(F)F)n1 (centres undefined) | 99.8 |
| O=C(O)c1ccc(Nc2nc(-c3ccc(Cl)cc3)nc3ccccc23)cc1 | 93.6 |
| COCCOC(=O)c1c(C)n(CCC2=CCCCC2)c2c1cc(O)c1ccccc12 | 85.4 |
| Cc1ccc(-n2nc(C(=O)NCC(=O)O)nc2-c2ccccc2)cc1 | 106 |
| CCc1ccc(-n2c(C)c(C(=O)OCCOC)c3cc(O)c4ccccc4c32)cc1 | 103 |

| SMILES | cell viability [%] |
| --- | --- |
| COc1ccc(CCNC(=O)c2ccccc2NC(=O)c2ccc(OC)c(OC)c2)cc1OC | 87.9 |
| CCOC(=O)/C=C1\NC(C)(C)Cc2cc3c(cc21)OCCO3 | 89.5 |
| CCC(C)C(NC(=O)CCC(=O)O)C(=O)O (centres undefined) | 100 |
| Cc1ccc2c(C)c(-c3ccc(Cl)cc3)c(=O)oc2c1 | 106 |
| CCC1(C)OC(=O)N2CCc3ccccc3C21C (centres undefined) | 87 |
| OC1(C#CCN2CCCCC2c2cccnc2)CCCCCC1 (centres undefined) | 97 |
| CC(Nc1n[nH]c(=O)[nH]c1=O)C(=O)N/N=C/c1ccncc1 (centres undefined) | 94.8 |
| CSc1ccc(S(=O)(=O)N2CCc3ccccc3C2)cc1 | 94.1 |
| CCOC(=O)/C(C#N)=C\c1ccc(/C=C(\C#N)C(=O)OCC)cc1 | 98.7 |
| Cc1ccc(C(=O)N2N=C(c3c(-c4ccccc4)c4cc(Br)ccc4[nH]c3=O)CC2c2ccccc2)cc1 (centres undefined) | 100 |
| CSc1cccc(NC(=O)Cn2c(=O)cc(C(=O)N3CCCCC3)c3ccccc32)c1 | 96.9 |
| COC(=O)c1ccccc1NC(=O)c1cccc(OC)c1 | 101 |
| Cc1cc(S(=O)(=O)N2CCOCC2)c2[nH]c(=O)cc(C)c2c1 | 101 |
| CCn1c(SCC(=O)Nc2cccc(C)c2C)nc2c(=O)[nH]cnc21 | 109 |
| CC(C)CC(NS(=O)(=O)c1c(C(C)C)cc(C(C)C)cc1C(C)C)C(=O)O (centres undefined) | 90.6 |
| O=[N+]([O-])C1=Cc2ccccc2OC1c1ccc2c(c1)OCO2 (centres undefined) | 2.67 |
| CCCNC(=O)c1cc(=O)n(CC(=O)Nc2ccc(C)cc2)c2ccccc12 | 84.1 |
| Cc1[nH]c2ccccc2c1CCNC(=O)c1ccc(Cl)c(Cl)c1 | 105 |
| CC(C)OC(=O)C1=C(N)Oc2c(oc(CO)cc2=O)C1c1ccccc1C(F)(F)F (centres undefined) | 87.8 |
| CCN(CC)c1ccc(C2C3CCCCC3(O)CCN2C(=O)c2ccccc2OC)cc1 (centres undefined) | 98.7 |
